Assay results published in the supplement of paper PMC10849652.
Some of the results follow.

By UniProt entry, the sequences of proteins in these tests, tags left out. Where a name states a change or a piece, a line headed by the entry shows the natural chain unless it says otherwise.
UniProt Q9UN81: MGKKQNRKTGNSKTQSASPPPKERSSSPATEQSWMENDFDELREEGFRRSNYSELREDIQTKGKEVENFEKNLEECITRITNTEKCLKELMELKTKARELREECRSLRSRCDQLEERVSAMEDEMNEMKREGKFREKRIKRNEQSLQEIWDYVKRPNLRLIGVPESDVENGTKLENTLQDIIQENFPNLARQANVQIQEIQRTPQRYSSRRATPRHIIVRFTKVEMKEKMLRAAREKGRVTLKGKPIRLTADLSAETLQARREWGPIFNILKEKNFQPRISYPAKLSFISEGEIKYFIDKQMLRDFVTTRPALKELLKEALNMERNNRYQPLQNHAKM
UniProt Q9Y448: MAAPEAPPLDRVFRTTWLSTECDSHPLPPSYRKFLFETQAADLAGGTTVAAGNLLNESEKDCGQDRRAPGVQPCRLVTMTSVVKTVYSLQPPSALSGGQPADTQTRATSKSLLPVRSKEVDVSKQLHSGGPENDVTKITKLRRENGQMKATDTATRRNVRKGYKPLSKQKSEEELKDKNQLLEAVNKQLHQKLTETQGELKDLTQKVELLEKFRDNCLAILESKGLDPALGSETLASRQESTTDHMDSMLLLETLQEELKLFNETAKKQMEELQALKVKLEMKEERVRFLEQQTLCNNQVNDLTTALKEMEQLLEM
UniProt O60268: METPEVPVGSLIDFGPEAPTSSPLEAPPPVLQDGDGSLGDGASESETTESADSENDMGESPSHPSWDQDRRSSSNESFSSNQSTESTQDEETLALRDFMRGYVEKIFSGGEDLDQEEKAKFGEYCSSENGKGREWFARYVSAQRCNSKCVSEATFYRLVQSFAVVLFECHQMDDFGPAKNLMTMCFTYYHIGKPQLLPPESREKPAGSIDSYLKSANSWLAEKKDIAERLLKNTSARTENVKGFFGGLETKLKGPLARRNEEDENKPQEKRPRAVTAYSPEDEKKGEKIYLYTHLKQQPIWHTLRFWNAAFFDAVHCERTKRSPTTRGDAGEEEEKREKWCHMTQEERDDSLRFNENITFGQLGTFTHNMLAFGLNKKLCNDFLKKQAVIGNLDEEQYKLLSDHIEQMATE
UniProt Q9Y664: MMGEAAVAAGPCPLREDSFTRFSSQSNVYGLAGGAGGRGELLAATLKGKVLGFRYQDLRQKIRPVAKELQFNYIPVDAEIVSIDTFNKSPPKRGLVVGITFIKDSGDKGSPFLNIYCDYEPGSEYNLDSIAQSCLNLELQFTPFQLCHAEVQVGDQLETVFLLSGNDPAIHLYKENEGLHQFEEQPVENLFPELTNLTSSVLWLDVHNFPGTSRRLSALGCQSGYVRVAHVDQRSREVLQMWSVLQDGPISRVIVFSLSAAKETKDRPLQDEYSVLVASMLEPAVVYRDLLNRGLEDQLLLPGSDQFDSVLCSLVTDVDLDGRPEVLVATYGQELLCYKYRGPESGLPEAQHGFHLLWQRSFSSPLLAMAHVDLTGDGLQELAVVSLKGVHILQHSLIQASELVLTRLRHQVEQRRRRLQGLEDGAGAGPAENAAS
UniProt O43896: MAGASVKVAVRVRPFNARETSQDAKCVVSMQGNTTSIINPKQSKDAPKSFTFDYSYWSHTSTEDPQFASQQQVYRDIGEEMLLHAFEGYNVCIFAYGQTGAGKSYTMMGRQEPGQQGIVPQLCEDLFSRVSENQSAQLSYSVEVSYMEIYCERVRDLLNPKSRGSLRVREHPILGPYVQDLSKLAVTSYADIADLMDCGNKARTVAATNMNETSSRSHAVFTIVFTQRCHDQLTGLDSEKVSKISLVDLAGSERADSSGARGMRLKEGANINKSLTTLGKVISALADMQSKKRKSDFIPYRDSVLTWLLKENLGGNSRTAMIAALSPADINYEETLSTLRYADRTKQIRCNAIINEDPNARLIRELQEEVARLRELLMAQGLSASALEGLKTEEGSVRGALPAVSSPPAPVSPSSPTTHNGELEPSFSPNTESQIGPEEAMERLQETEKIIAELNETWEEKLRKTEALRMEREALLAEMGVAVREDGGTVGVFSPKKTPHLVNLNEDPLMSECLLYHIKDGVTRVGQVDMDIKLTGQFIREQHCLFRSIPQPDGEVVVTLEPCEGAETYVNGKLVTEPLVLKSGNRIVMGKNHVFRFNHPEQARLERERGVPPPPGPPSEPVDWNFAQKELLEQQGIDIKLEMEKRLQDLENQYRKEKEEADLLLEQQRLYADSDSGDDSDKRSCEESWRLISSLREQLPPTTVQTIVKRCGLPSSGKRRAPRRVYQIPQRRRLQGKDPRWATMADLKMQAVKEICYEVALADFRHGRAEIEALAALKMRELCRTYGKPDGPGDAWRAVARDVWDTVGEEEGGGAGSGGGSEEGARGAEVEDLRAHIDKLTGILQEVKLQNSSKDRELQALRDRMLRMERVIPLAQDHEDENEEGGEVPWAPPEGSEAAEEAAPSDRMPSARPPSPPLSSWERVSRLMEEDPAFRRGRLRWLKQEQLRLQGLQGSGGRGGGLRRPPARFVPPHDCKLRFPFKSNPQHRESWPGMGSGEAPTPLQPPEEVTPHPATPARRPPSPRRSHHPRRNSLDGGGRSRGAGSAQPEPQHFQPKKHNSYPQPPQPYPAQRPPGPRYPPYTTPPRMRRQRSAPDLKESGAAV
UniProt A8MWY0: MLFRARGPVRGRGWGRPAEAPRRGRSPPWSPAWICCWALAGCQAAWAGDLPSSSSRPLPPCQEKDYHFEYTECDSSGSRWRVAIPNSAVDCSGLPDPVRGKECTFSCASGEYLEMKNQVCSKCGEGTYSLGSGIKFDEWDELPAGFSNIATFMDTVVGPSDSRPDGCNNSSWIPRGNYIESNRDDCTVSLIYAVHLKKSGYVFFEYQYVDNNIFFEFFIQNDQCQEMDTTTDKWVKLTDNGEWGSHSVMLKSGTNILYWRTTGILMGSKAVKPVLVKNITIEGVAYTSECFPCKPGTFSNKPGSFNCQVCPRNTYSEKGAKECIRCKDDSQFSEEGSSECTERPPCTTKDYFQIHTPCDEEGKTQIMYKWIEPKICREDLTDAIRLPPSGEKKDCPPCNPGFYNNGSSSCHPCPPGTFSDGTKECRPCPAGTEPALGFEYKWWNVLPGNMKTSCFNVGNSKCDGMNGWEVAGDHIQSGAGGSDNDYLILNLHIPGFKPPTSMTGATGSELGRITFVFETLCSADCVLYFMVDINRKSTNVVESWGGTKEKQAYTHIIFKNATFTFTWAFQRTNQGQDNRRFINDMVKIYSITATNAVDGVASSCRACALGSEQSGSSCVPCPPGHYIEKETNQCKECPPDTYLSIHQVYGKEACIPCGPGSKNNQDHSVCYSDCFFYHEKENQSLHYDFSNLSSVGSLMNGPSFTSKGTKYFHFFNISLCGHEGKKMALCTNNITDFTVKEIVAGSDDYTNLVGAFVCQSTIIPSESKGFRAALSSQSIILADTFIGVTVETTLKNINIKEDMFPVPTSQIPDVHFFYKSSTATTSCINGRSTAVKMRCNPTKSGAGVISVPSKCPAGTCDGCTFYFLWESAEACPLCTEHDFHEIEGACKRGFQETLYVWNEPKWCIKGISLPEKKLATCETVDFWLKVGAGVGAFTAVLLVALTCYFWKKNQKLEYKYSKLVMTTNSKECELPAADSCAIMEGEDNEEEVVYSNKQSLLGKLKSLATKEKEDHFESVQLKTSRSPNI
UniProt O00139: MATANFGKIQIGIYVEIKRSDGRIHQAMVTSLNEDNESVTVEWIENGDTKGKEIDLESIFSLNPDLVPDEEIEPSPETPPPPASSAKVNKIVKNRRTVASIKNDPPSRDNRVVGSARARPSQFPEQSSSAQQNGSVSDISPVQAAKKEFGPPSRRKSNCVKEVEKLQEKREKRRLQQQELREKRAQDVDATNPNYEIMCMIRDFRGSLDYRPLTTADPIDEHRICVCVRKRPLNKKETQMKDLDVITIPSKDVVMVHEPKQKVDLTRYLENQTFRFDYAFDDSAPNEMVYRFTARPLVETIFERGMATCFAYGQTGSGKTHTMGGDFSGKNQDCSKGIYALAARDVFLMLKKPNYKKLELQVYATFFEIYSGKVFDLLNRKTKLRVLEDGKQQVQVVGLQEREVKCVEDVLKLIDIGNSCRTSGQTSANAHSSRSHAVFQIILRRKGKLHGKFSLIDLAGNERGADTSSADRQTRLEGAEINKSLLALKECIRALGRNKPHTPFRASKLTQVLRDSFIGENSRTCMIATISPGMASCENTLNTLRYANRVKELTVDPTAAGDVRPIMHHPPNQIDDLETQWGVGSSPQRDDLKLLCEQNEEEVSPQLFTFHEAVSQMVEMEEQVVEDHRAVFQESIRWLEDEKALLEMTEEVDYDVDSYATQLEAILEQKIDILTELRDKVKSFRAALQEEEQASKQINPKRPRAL
UniProt Q4G0J3: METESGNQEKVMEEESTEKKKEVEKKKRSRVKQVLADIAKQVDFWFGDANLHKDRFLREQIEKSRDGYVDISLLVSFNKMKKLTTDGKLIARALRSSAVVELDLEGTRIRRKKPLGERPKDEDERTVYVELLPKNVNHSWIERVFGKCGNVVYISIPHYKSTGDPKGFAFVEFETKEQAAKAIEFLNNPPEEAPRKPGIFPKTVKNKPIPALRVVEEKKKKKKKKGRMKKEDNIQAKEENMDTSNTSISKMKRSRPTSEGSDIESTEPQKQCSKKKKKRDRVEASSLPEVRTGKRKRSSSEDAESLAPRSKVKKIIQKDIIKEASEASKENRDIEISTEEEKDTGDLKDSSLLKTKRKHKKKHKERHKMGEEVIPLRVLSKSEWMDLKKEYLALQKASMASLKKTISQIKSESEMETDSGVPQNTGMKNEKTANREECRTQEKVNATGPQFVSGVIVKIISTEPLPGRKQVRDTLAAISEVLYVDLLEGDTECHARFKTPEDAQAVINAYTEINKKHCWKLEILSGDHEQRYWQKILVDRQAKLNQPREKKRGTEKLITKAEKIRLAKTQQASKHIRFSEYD
UniProt O43813, whole entry, looked up: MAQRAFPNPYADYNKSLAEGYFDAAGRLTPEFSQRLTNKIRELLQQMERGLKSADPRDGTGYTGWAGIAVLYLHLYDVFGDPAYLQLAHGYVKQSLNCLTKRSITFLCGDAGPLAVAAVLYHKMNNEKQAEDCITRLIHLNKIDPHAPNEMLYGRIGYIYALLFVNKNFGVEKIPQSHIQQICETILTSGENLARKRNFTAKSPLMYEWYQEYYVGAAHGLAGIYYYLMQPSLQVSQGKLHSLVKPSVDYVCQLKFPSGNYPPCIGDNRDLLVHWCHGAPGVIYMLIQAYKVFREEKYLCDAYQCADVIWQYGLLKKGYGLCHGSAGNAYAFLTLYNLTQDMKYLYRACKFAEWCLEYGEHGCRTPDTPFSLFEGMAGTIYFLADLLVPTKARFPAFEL
UniProt Q9Y496, whole entry, looked up: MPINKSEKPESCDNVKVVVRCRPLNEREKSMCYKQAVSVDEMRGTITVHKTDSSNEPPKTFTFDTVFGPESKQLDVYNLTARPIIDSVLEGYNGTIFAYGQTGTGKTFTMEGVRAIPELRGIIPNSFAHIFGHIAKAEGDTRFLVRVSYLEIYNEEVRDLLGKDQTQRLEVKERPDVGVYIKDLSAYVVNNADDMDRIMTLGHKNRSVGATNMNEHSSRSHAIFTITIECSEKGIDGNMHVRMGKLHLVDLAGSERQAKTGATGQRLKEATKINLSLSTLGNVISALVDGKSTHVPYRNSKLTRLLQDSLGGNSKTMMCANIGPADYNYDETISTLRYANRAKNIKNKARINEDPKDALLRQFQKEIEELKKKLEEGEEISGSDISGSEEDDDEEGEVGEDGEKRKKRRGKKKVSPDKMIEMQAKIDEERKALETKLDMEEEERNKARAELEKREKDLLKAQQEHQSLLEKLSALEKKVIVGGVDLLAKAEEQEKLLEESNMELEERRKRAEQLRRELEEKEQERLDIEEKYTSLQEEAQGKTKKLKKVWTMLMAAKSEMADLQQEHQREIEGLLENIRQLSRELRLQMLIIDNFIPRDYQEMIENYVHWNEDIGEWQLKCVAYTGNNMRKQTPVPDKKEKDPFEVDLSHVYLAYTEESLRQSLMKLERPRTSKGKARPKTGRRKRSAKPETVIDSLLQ

Tests used:
Experiment in all cases: log2 fold change, soluble protein after heating vs DMSO (PISA); higher = thermal stabilisation; K562 lysate, 10 uM; active = over 0.2 and 3.5 SD of the protein, either way, in both replicates (recomputed)
erlotinib = compound: C#Cc1cccc(Nc2ncnc3cc(OCCOC)c(OCCOC)cc23)c1 [erlotinib]
Procedure, shortened: (§1)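 Quantification was by TMTpro 16plex LC-MS/MS with equalised channel sums, applied to the supernatant after 21,000xg for 90 min. Samples were crude K562 extract at 1 mg/mL protein in PBS pH 7.4 with 1 mM MgCl2, treated with 10 μM compound for 30 min, heated for 3 min across 48°C-58°C, pooled and brought to 0.5% NP-40 at 4°C. Values are log-two fold changes in thermal stability relative to solvent controls, from duplicates.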

[1] = compound: C/C(=N\NC(=O)C1=CC(=CC=C1)S(=O)(=O)N2CCOCC2)/C3=C(C=CC(=C3)Cl)O
Procedure, shortened: as §1

[2] = compound: C1=CC(=CC=C1C2=NC3=C(N2)C=C(C=C3)C(=O)N)OC4=CC=C(C=C4)Cl
Procedure, shortened: as §1

[3] = compound: C1=CC2=C(C=CC(=C2)/C=C\3/C(=O)NC(=NCC4=CC=CS4)S3)N=C1
Procedure, shortened: as §1

[4] = compound: C1=CC2=NC=CN=C2C=C1/C=C/3\C(=O)NC(=O)S3
Procedure, shortened: as §1

[5] = compound: C1=CC=C(C=C1)C2=NC(=C(N2)C3=CC=NC=C3)C4=CC(=C(C=C4)Cl)O
Procedure, shortened: as §1

[6] = compound: C1=CC=C2C(=C1)C3=NNC4=CC=CC(=C43)C2=O
Procedure, shortened: as §1

[7] = compound: C1CCN(C1)C(=O)NC2=CC=CC(=C2)NC3=NC=C(C(=N3)NCCC4=CN=CN4)Br
Procedure, shortened: as §1

[8] = compound: C1CN(CCC1(CC2=CC=C(C=C2)Cl)N)C3=NC=NC4=C3C=CN4
Procedure, shortened: as §1

IRAK-1-4 Inhibitor I = compound: C1COCCN1CCN2C3=CC=CC=C3N=C2NC(=O)C4=CC(=CC=C4)[N+](=O)[O-] [IRAK-1-4 Inhibitor I]
Procedure, shortened: as §1

ibrutinib = compound: C=CC(=O)N1CCC[C@@H](n2nc(-c3ccc(Oc4ccccc4)cc3)c3c(N)ncnc32)C1 [ibrutinib]
Procedure, shortened: as §1

[9] = compound: CC(=O)c1cnc2ccc(-c3cc(Cl)c(O)c(Cl)c3)nc2c1N[C@H]1CC[C@H](CN(C)C)CC1
Procedure, shortened: as §1

ralimetinib = compound: CC(C)(C)Cn1c(N)nc2ccc(-c3[nH]c(C(C)(C)C)nc3-c3ccc(F)cc3)nc21 [ralimetinib]
Procedure, shortened: as §1

[10] = compound: CC(C)(O)CC(=O)NCCn1ccc2ncnc(Nc3ccc(Oc4cccc(C(F)(F)F)c4)c(Cl)c3)c21
Procedure, shortened: as §1

[11] = compound: CC(C)C1=C2N=C(C=C(N2N=C1)NCC3=CC=CC=C3)NCCCCCCN
Procedure, shortened: as §1

[12] = compound: CC1=C(C(CC(=O)N1)C2=CC=C(C=C2)C(F)(F)F)C(=O)NC3=C(C=C4C(=C3)C=NN4)F
Procedure, shortened: as §1

[13] = compound: CC1=C(C2=C(C=C1)C(=O)C3=CC=CC=C3N2CCCN)C
Procedure, shortened: as §1

[14] = compound: CC1=C(C=C(C=C1)NC(=O)C2=CC(=CC=C2)C(C)(C)C#N)NC3=CC4=C(C=C3)N=CN(C4=O)C
Procedure, shortened: as §1

[15] = compound: CC1=C(C=C(C=C1)NC(=O)C2=CC(=CC=C2)N(C)C)NC(=O)C3=CC=C(C=C3)O
Procedure, shortened: as §1

[16] = compound: CC1=CC=C(C=C1)SC2=C3C=C(SC3=CN=C2)C(=O)N
Procedure, shortened: as §1

Measured: log2 fold change

KIF13A isoform 4 (UniProt Q9H1H9)
inactive: erlotinib 0.05 | [1] -0.014 | [2] -0.003 | [3] -0.013 | [4] -0.008 | [5] -0.011 | [6] 0.059 | [7] -0.009 | [8] 0.011 | IRAK-1-4 Inhibitor I -0.041 | ibrutinib 0.036 | [9] -0.012 | ralimetinib 0.018 | [10] -0.027 | [11] -0.039 | [12] -0.067 | [13] -0.004 | [14] -0.042 | [15] 0.009 | [16] 0.014

KIF4A (UniProt O95239)
inactive: erlotinib 0.015 | [1] -0.022 | [2] -0.042 | [3] 0.02 | [4] 0.022 | [5] 0.014 | [6] -0.033 | [7] -0.026 | [8] 0.031 | IRAK-1-4 Inhibitor I -0.01 | ibrutinib 0.011 | [9] 0.007 | ralimetinib -0.014 | [10] 0.003 | [11] -0.002 | [12] -0.013 | [13] -0.027 | [14] 0.004 | [15] 0.056 | [16] 0.048

L1RE1 (UniProt Q9UN81)
inactive: erlotinib -0.001 | [1] -0.045 | [2] -0.044 | [3] -0.11 | [4] 0.158 | [5] 0.015 | [6] 0.011 | [7] 0.022 | [8] -0.079 | IRAK-1-4 Inhibitor I -0.004 | ibrutinib -0.036 | [9] -0.1 | ralimetinib -0.005 | [10] -0.101 | [11] -0.008 | [12] 0.057 | [13] -0.023 | [14] -0.016 | [15] 0.023 | [16] 0

Two consecutive records out of the list so far, quoted:
KIF13A isoform 4 (UniProt Q9H1H9)
inactive: erlotinib 0.05 | [1] -0.014 | [2] -0.003 | [3] -0.013 | [4] -0.008 | [5] -0.011 | [6] 0.059 | [7] -0.009 | [8] 0.011 | IRAK-1-4 Inhibitor I -0.041 | ibrutinib 0.036 | [9] -0.012 | ralimetinib 0.018 | [10] -0.027 | [11] -0.039 | [12] -0.067 | [13] -0.004 | [14] -0.042 | [15] 0.009 | [16] 0.014

KIF4A (UniProt O95239)
inactive: erlotinib 0.015 | [1] -0.022 | [2] -0.042 | [3] 0.02 | [4] 0.022 | [5] 0.014 | [6] -0.033 | [7] -0.026 | [8] 0.031 | IRAK-1-4 Inhibitor I -0.01 | ibrutinib 0.011 | [9] 0.007 | ralimetinib -0.014 | [10] 0.003 | [11] -0.002 | [12] -0.013 | [13] -0.027 | [14] 0.004 | [15] 0.056 | [16] 0.048

The list goes on.

KNSTRN (UniProt Q9Y448)
inactive: erlotinib -0.007 | [1] -0.003 | [2] -0.018 | [3] 0.006 | [4] -0.018 | [5] 0.015 | [6] 0.012 | [7] 0.036 | [8] -0.061 | IRAK-1-4 Inhibitor I -0.039 | ibrutinib -0.017 | [9] 0.018 | ralimetinib 0.027 | [10] 0.081 | [11] -0.008 | [12] 0.022 | [13] -0.023 | [14] -0.032 | [15] 0 | [16] 0.002

LAMA2 (UniProt P24043)
inactive: erlotinib 0.073 | [1] 0.054 | [2] 0.073 | [3] -0.001 | [4] -0.008 | [5] -0.027 | [6] 0.006 | [7] -0.13 | [8] 0.138 | IRAK-1-4 Inhibitor I 0.032 | ibrutinib -0.023 | [9] 0.016 | ralimetinib -0.03 | [10] -0.133 | [11] 0.008 | [12] 0.041 | [15] 0.029 | [16] -0.14

KIAA0513 (UniProt O60268)
inactive: erlotinib 0.019 | [1] -0.03 | [2] 0.039 | [3] -0.009 | [4] -0.044 | [5] 0.089 | [6] -0.011 | [7] -0.034 | [8] 0.043 | IRAK-1-4 Inhibitor I 0.037 | ibrutinib 0.005 | [9] 0.004 | ralimetinib -0.047 | [10] -0.047 | [11] 0.003 | [12] 0.056 | [13] -0.019 | [14] 0.011 | [15] -0.01 | [16] -0.03

KPTN (UniProt Q9Y664)
inactive: erlotinib 0.005 | [1] -0.003 | [2] 0.063 | [3] -0.076 | [4] 0.005 | [5] -0.092 | [6] 0.064 | [7] 0.031 | [8] 0.02 | IRAK-1-4 Inhibitor I 0.032 | ibrutinib -0.001 | [9] 0.011 | ralimetinib -0.042 | [10] -0.061 | [11] -0.072 | [12] 0.014 | [13] -0.096 | [14] 0.064 | [15] 0.019 | [16] 0.051

KIF1C (UniProt O43896)
inactive: erlotinib 0.055 | [1] 0.056 | [2] 0.148 | [3] -0.021 | [4] -0.023 | [5] 0.001 | [6] -0.223 | [7] -0.007 | [8] 0.238 | IRAK-1-4 Inhibitor I 0.087 | ibrutinib -0.253 | [9] -0.008 | ralimetinib 0.058 | [10] -0.078 | [11] 0.011 | [12] 0.117 | [14] -0.041 | [15] -0.169 | [16] -0.007

KIAA1324L (UniProt A8MWY0)
inactive: erlotinib -0.005 | [1] -0.001 | [2] 0.064 | [3] -0.003 | [4] -0.038 | [5] -0.014 | [6] 0.013 | [7] -0.06 | [8] 0.02 | IRAK-1-4 Inhibitor I 0.013 | ibrutinib 0.059 | [9] -0.007 | ralimetinib -0.009 | [10] -0.026 | [11] -0.031 | [12] 0.028 | [13] -0.009 | [14] 0.004 | [15] 0.023 | [16] -0.005

LARP1B, A0A3B3ISF0
inactive: erlotinib -0.089 | [1] -0.09 | [2] 0.051 | [3] 0.054 | [4] -0.026 | [5] -0.054 | [6] 0.013 | [7] -0.02 | [8] 0.012 | IRAK-1-4 Inhibitor I -0.006 | ibrutinib -0.059 | [9] -0.011 | ralimetinib -0.035 | [10] 0.008 | [11] -0.084 | [12] -0.016 | [13] -0.024 | [14] -0.077 | [15] 0.01 | [16] 0.152

LAMTOR4 (UniProt Q0VGL1)
inactive: erlotinib -0.024 | [1] 0.011 | [2] -0.003 | [3] -0.003 | [4] 0.009 | [5] 0.039 | [6] -0.031 | [7] -0.033 | [8] -0.016 | IRAK-1-4 Inhibitor I 0.011 | ibrutinib 0.057 | [9] -0.012 | ralimetinib -0.002 | [10] -0.007 | [11] -0.002 | [12] -0.034 | [13] 0.019 | [14] 0.03 | [15] -0.019 | [16] 0.002

KIF2A isoform 4 (UniProt O00139)
inactive: erlotinib -0.008 | [1] 0.02 | [2] -0.014 | [3] -0.007 | [4] -0.037 | [5] 0.001 | [6] -0.022 | [7] -0.02 | [8] -0.041 | IRAK-1-4 Inhibitor I -0.026 | ibrutinib 0.031 | [9] 0 | ralimetinib 0.017 | [10] 0.009 | [11] 0.002 | [12] -0.01 | [13] -0.002 | [14] -0.02 | [15] 0.032 | [16] 0.018

LARP7 isoform 3 (UniProt Q4G0J3)
inactive: erlotinib -0.026 | [1] 0.029 | [2] 0.007 | [3] -0.006 | [4] -0.011 | [5] 0.003 | [6] 0.012 | [7] -0.002 | [8] -0.017 | IRAK-1-4 Inhibitor I -0.022 | ibrutinib -0.001 | [9] -0.019 | ralimetinib -0.015 | [10] -0.009 | [11] 0.002 | [12] 0.021 | [13] -0.024 | [14] 0.006 | [15] 0.027 | [16] 0.001

LANCL1 (UniProt O43813)
inactive: erlotinib -0.021 | [1] 0.026 | [2] 0.016 | [3] 0.027 | [4] 0.013 | [5] -0.024 | [6] -0.014 | [7] -0.007 | [8] -0.009 | IRAK-1-4 Inhibitor I 0.017 | ibrutinib 0.044 | [9] 0.028 | ralimetinib -0.004 | [10] -0.031 | [11] -0.019 | [12] -0.018 | [13] 0.014 | [14] 0.055 | [15] 0.009 | [16] -0.001

KIF3A (UniProt Q9Y496)
inactive: erlotinib -0.114 | [1] -0.008 | [2] -0.048 | [3] 0.024 | [4] -0.026 | [5] -0.03 | [6] -0.057 | [7] 0.001 | [8] 0.029 | IRAK-1-4 Inhibitor I -0.019 | ibrutinib -0.06 | [9] -0.145 | ralimetinib 0.063 | [10] -0.211 | [11] 0.131 | [12] 0.035 | [13] -0.179 | [14] -0.057 | [15] -0.061 | [16] -0.011

LARP1 (UniProt Q6PKG0)
inactive: erlotinib -0.005 | [1] 0.031 | [2] -0.029 | [3] -0.001 | [4] -0.013 | [5] 0.014 | [6] 0.017 | [7] 0.023 | [8] -0.017 | IRAK-1-4 Inhibitor I -0.012 | ibrutinib 0.004 | [9] -0.015 | ralimetinib 0.008 | [10] 0.021 | [11] -0.001 | [12] 0.003 | [13] -0.029 | [14] -0.024 | [15] 0.026 | [16] 0.025
